Article PMC8654936

Chains of the proteins cited; added tags and fusions are not shown. Lines headed by an entry give the natural chain unless they say otherwise; changes in a name come on top. Residues count along the entry.
UniProt O15553: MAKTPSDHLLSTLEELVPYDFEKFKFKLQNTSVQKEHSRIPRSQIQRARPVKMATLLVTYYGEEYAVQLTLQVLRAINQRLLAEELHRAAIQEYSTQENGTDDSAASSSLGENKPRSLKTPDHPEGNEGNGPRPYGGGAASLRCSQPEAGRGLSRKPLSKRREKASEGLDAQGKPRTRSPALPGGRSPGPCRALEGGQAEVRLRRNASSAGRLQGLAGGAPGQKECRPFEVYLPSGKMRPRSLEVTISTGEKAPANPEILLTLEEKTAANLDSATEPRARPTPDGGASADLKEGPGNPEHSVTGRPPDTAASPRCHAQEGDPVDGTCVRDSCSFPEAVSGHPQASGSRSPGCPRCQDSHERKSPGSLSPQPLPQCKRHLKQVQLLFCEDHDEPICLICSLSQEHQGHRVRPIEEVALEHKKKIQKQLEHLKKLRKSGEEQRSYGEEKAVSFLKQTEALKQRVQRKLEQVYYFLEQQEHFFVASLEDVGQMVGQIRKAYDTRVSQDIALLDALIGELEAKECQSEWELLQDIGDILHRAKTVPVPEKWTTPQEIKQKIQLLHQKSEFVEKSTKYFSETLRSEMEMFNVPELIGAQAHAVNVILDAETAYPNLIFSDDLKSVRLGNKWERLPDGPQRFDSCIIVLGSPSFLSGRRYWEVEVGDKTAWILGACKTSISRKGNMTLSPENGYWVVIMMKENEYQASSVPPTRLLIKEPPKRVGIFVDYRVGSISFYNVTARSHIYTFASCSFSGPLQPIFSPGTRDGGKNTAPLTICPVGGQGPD
UniProt P61769: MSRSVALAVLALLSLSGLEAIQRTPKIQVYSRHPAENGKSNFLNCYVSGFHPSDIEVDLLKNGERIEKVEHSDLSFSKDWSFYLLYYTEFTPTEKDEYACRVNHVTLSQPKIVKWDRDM
UniProt P29466, residues 120-297: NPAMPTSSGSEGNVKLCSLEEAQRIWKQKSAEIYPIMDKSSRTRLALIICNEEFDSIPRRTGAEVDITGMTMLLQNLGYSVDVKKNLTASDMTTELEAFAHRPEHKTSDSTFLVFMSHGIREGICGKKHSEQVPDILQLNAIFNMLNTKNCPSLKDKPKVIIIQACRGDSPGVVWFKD

Columns and labels:
[1] = biological target: FLAG-tagged pyrin PRY/SPRY domain (exon 10) (human) (UniProt O15553); test: co-IP; Lenti-X 293T cells co-transfected; lysis buffer 20 mM Tris–HCl pH 6.0, 120 mM NaCl, 5% glycerol, 0.5% Triton X-100; anti-FLAG Ab agarose beads, 1 h at 4 °C; blot for V5; some samples with or without co-expressed V5-β2MG
[2] = biological target: V5-tagged β2-microglobulin (human) (UniProt P61769); test: co-IP; reciprocal: Lenti-X 293T cells co-transfected; same lysis buffer; anti-V5 Ab magnet beads, 1 h at 4 °C; blot for FLAG

With “V5-tagged β2-microglobulin (from UniProt P61769 21-119)” the binding [1] was “binds”.
For “V5-tagged caspase-1 p20 subunit (from UniProt P29466 120-297) (domain or fragment)”, the binding [1] was “binds”.
For “FLAG-tagged pyrin PRY/SPRY domain (exon 10) (from UniProt O15553) (domain or fragment)”, the binding [2] was “binds”.

These are yes or no findings as the source states them, for the method shown. Binding seen in cells or lysates may run through a third protein. A result given as binding can be weak or reduced; the word gives no strength.
